This note sets out measurements from paper PMC5996148.

The chains behind the UniProt entries cited, without tags or fusion partners. Where a name states a change or a piece, a line headed by the entry shows the natural chain unless it says otherwise.
UniProt Q86XS5: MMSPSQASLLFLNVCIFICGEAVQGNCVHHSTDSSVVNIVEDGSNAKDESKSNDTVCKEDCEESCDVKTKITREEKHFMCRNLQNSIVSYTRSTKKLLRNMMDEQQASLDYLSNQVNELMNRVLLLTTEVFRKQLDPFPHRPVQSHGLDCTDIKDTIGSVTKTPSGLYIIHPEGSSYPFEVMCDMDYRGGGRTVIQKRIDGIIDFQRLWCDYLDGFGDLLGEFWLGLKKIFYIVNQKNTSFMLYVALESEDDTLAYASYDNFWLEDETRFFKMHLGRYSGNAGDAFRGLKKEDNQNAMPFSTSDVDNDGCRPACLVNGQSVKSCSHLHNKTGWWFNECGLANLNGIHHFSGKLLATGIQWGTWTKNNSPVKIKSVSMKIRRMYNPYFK

Values joined by “and” are separate entries in the source; they are usually repeats but may differ in a detail not shown here. Identical values can stand only once. Some of the results follow. For some of these results: The source does not settle which construct or isoform was used.

Common to all, as to assay: protein microarray (ProtoArray v5.0), streptavidin-Alexa Fluor 647
Conditions in all cases: 3'-biotin; 20 mM Tris (pH 7.5), 5 mM MgCl2, 100 mM KCl, 0.1% Tween-20, A/T-rich and random oligonucleotide blockers; temperature not stated; high values mean tight binding

Test [1] has as its target ANGPTL5 (UniProt Q86XS5).
Test [2] relates to ANKHD1 (human).
For test [3], the system named is ANKRD13A (human).
Test [4] concerns ANKRD17 (human).
Test [5] relates to ANKRD37 (human).
Test [6] relates to ANKRD45 (human).
For test [7], the system named is ANKRD49 (human).
Test [8] has as its system ANKRD50 (human).
Test [9] deals with ANKS3 (human).
Test [10] has as its system ANPEP (human).

On to “GGGAGGCTGAGGCAGG [G4-1 biotinylated (PQS2)]”, for which the binding signal was -0.279 z-score in [1]; -0.344 z-score and -0.337 z-score in test [2]; -0.262 z-score in test [3]; -0.353 z-score in test [4]; -0.304 z-score in [5]; -0.353 z-score in [6]. Besides, the binding signal in test [7] was -0.316 z-score; in [8], -0.326 z-score; in test [9] it was -0.335 z-score; in [10], -0.34 z-score.
